The list does not hold the whole screen: it is rich in T/C values a quarter to a half above the control, in often repeated tests (any T/C) and in doses without a T/C. Other doses and runs of a compound stand elsewhere. T/C gives the treated animals as a percentage of the vehicle group. Some entries give survivors of the animals treated and no T/C: the source files T/C as zero there, which appears to mark a toxic dose or a test without result, not a measured value. Some survivor counts are full or nearly so, which does not show that the dose was tolerated: survival well below the control is almost never listed, so the zero probably covers shortened survival too. Counts of survivors are from the toxicity check (mostly the fifth day) where no day follows; animals may have died later. Schedules are NCI's codes, read here as Q, the interval in days (D) or hours (H), X, the number of doses. Where survival is the endpoint, the PubChem record calls one and a half times the control and up active, and a quarter to a half above the control has no call in these data; cut-offs in other NCI protocols can differ. Some entries were tested several times; their values stand side by side, smallest first. Some T/C values carry the count of animals alive at the toxicity check (mostly the fifth day); without a count, all were alive then.

The subject of the test is BDF1 mice, P388 leukemia ip, median survival T/C. As to the kind of experiment: NCI In Vivo Anticancer Drug Screen. Data for tumor model P388 Leukemia (intraperitoneal) in B6D2F1 (BDF1) mice. The note with it: T/C endpoint: median survival time, higher T/C = longer survival. The method in brief:
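Antitumour effect was judged in vivo: survival in drug-treated mice, normalised to that of vehicle-dosed controls, gives the reported T/C.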

The mark [1] stands for this setting: dose: 200.0 mg/kg/injection, schedule: Q01DX009 (ip), vehicle: saline.
The mark [2] stands for this setting: dose: 200.0 mg/kg/injection, schedule: Q04DX003 (ip), vehicle: saline.
The mark [3] stands for this setting: dose: 100.0 mg/kg/injection, schedule: Q04DX003 (ip), vehicle: saline with Tween-80.
[4] abbreviates: dose: 200.0 mg/kg/injection, schedule: Q04DX003 (ip), vehicle: saline with Tween-80.
The mark [5] stands for this setting: dose: 400.0 mg/kg/injection, schedule: Q04DX003 (ip), vehicle: saline with Tween-80.
Setting [6] is: dose: 100.0 mg/kg/injection, schedule: Q01DX009 (ip), vehicle: Klucel (hydroxypropylcellulose) (HPC).
The mark [7] stands for this setting: dose: 400.0 mg/kg/injection, schedule: Q01DX009 (ip), vehicle: water.
[8] abbreviates: dose: 12.5 mg/kg/injection, schedule: Q01DX009 (ip), vehicle: saline with Tween-80.
[9] abbreviates: dose: 25.0 mg/kg/injection, schedule: Q01DX009 (ip), vehicle: saline with Tween-80.

On to `CC1=CCC2(C)C(=O)C1CC1=C2CC(C)(C)CC1=O` (stereo not drawn), for which, under setting [1], the survivor count is reported as 6 of 6.

Consider `O=C(O)C1CSC(c2ccccc2)N1` (stereo not drawn), for which the T/C (dose: 50.0 mg/kg/injection, schedule: Q01DX009 (ip), vehicle: saline with Tween-80) is 131 % of control.

For the compound `c1ccc([P+](c2ccccc2)(c2ccccc2)c2ccccc2)cc1`, the T/C is, setting by setting: (dose: 0.15 mg/kg/injection, schedule: Q01DX009 (ip), vehicle: saline) 127 % of control; (dose: 0.31 mg/kg/injection, schedule: Q01DX009 (ip), vehicle: saline) 136 % of control; (dose: 0.66 mg/kg/injection, schedule: Q01DX009 (ip), vehicle: saline) 125 % of control; (dose: 1.0 mg/kg/injection, schedule: Q01DX009 (ip), vehicle: saline) 133 % of control; (dose: 2.7 mg/kg/injection, schedule: Q04DX003 (ip), vehicle: saline) 133, 140, 145 % of control; (dose: 5.0 mg/kg/injection, schedule: Q01DX009 (ip), vehicle: Klucel (hydroxypropylcellulose) (HPC)) 130 % of control. In addition, the T/C is 129 % of control [5 of 6 alive] (dose: 5.9 mg/kg/injection, schedule: Q04DX003 (ip), vehicle: saline) and 145 % of control (dose: 7.5 mg/kg/injection, schedule: Q04DX003 (ip), vehicle: saline). Also, the survivor count (dose: 1.25 mg/kg/injection, schedule: Q01DX009 (ip), vehicle: saline) was 1 of 6; the survivor count (dose: 2.5 mg/kg/injection, schedule: Q01DX009 (ip), vehicle: saline) is 0 of 6; the survivor count (dose: 5.0 mg/kg/injection, schedule: Q01DX009 (ip), vehicle: saline) was 0 of 6; the survivor count (dose: 9.0 mg/kg/injection, schedule: Q04DX003 (ip), vehicle: saline) is 4 of 6; the survivor count (dose: 10.0 mg/kg/injection, schedule: Q01DX009 (ip), vehicle: Klucel (hydroxypropylcellulose) (HPC)) is on record as 4 of 6; the survivor count (dose: 13.0 mg/kg/injection, schedule: Q04DX003 (ip), vehicle: saline) is on record as 3 of 6. Also, the survivor count runs as follows: (dose: 15.0 mg/kg/injection, schedule: Q01DX009 (ip), vehicle: Klucel (hydroxypropylcellulose) (HPC)) 1 of 6; (dose: 15.0 mg/kg/injection, schedule: Q04DX003 (ip), vehicle: saline) 3 of 6; (dose: 30.0 mg/kg/injection, schedule: Q01DX009 (ip), vehicle: Klucel (hydroxypropylcellulose) (HPC)) 0 of 6; (dose: 30.0 mg/kg/injection, schedule: Q04DX003 (ip), vehicle: saline) 6 of 6.

For the compound `CCNC1=C(N2CC2)C(=O)C(NCC)=C(N2CC2)C1=O`, where the note is “dose: 3.0 mg/kg/injection, schedule: Q01DX009 (ip), vehicle: saline”, the survivor count is given as 6 of 6.

`O=C(C[N+]12CN3CN(CN(C3)C1)C2)c1ccc(Cl)cc1`: the T/C is, setting by setting: (dose: 100.0 mg/kg/injection, schedule: Q04DX003 (ip), vehicle: saline sonified) 127 % of control; (dose: 100.0 mg/kg/injection, schedule: Q04DX003 (ip), vehicle: saline) 130 % of control; (dose: 150.0 mg/kg/injection, schedule: Q04DX003 (ip), vehicle: saline sonified) 145 % of control; under setting [2], 135 % of control.

In the case of `CCCCCCCCCCCCCCCC[N+](C)(C)C(C)c1ccc(OC)cc1` (stereo not drawn), the survivor count reads like this: (dose: 12.5 mg/kg/injection, schedule: Q04DX003 (ip), vehicle: saline with Tween-80) 6 of 6; (dose: 25.0 mg/kg/injection, schedule: Q04DX003 (ip), vehicle: saline with Tween-80) 4 of 6; under setting [3], 0 of 6; under setting [4], 0 of 6; under setting [5], 0 of 6.

Take `N#Cc1c(N)sc(N)c1C#N`: the T/C under setting [6] is 125 % of control.

Regarding `C=CC(=O)NCNC(=O)C=C`, under setting [4], the T/C is 140 % of control.

With `CC(C)(C)C1COP(=O)(c2ccccc2)N(c2ccccc2)C1` (stereo not drawn), the survivor count (dose: 200.0 mg/kg/injection, schedule: Q01DX005 (ip), vehicle: saline with Tween-80) is listed as 0 of 6.

Take `CN(N=O)C(=O)Nc1ccc(C(=O)O)cc1`: the survivor count (dose: 225.0 mg/kg/injection, schedule: Q04DX003 (ip), vehicle: saline with Tween-80) was 4 of 6.

Turning to `COc1c(I)cc(/C=C(\C)[N+](=O)[O-])cc1I`, for the setting “dose: 200.0 mg/kg/injection, schedule: Q01DX009 (ip), vehicle: saline with Tween-80”, the survivor count is 3 of 6.

`Oc1ccc(I)c2cccnc12`: the survivor count (dose: 125.0 mg/kg/injection, schedule: Q01DX010 (ip), vehicle: carboxymethylcellulose (CMC)) was 6 of 6.

Regarding `CC(=O)Nc1nncs1`, the survivor count (dose: 400.0 mg/kg/injection, schedule: Q01DX009 (ip), vehicle: saline sonified) is listed as 3 of 6.

Consider `COC(OC)C1(O)CC(C(C)C)OC(=O)N1` (stereo not drawn), for which the T/C under setting [2] is 132 % of control.

On to `O=[N+]([O-])c1ccc(N2CCN(c3ccccc3)CC2)c2c1no[n+]2[O-]`, for which, under “dose: 300.0 mg/kg/injection, schedule: Q04DX003 (ip), vehicle: saline with Tween-80”, the T/C is 126 % of control.

In the case of `O/N=C1\CCCc2ccc(F)cc21`, for the setting “dose: 100.0 mg/kg/injection, schedule: Q01DX009 (ip), vehicle: saline with Tween-80”, the T/C is 130 % of control.

Regarding `CCOC(C[Se][Se]CC(OCC)OCC)OCC`, the survivor count (dose: 12.5 mg/kg/injection, schedule: Q01DX009 (ip), vehicle: saline) is 1 of 6.

As for `CC(=O)n1ncc2ccc(N)cc21`, the survivor count under setting [7] is 0 of 6.

As to `NC(=S)N/N=C\c1nccc2ccc(N)cc12`, the T/C under setting [8] is 144 % of control and the T/C under setting [9] was 139 % of control.

With `CCOC(=O)CNCc1ccc(Cl)c(Cl)c1`, for the setting “dose: 400.0 mg/kg/injection, schedule: Q04DX003 (ip), vehicle: water”, the survivor count was 2 of 6.

On to `O=C1CN(CN2CCCCC2)C(=O)CN1CN1CCCCC1`, for which the survivor count is 6 of 6 under setting [6]; 2 of 6 (dose: 200.0 mg/kg/injection, schedule: Q01DX009 (ip), vehicle: Klucel (hydroxypropylcellulose) (HPC)); 0 of 6 (dose: 300.0 mg/kg/injection, schedule: Q01DX009 (ip), vehicle: Klucel (hydroxypropylcellulose) (HPC)); 3 of 6 (dose: 400.0 mg/kg/injection, schedule: Q04DX003 (ip), vehicle: Klucel (hydroxypropylcellulose) (HPC)).

`CN(C)CCNC1=CC(=O)c2ccccc2C1=O`: the survivor count by setting is: (dose: 200.0 mg/kg/injection, schedule: Q04DX003 (ip), vehicle: water) 3 of 6; (dose: 300.0 mg/kg/injection, schedule: Q01DX009 (ip), vehicle: water) 1 of 6; under setting [7], 0 of 6.

For `O=C1C=C(Nc2ccc(O)cc2)c2ccccc2C1=O`, the T/C (dose: 35.0 mg/kg/injection, schedule: Q01DX009 (ip), vehicle: saline with Tween-80) was 127 % of control. For the same compound, the survivor count by setting is: (dose: 55.0 mg/kg/injection, schedule: Q01DX009 (ip), vehicle: saline with Tween-80) 6 of 6; (dose: 80.0 mg/kg/injection, schedule: Q01DX009 (ip), vehicle: saline with Tween-80) 4 of 6.

For `Clc1cc(Cl)nc(N2CC2)n1`, the survivor count runs as follows: under setting [3], 0 of 6; under setting [4], 0 of 6; under setting [5], 0 of 6.

Regarding `CC(=N\[O-])/C(C)=N/O.CC(=N\[O-])/C(C)=N/O.CCCc1ccncc1.[Cl-].[Cl-].[Rh+3]`, the survivor count under setting [1] is listed as 6 of 6.

Turning to `Clc1cc(CBr)c(Cl)c(Cl)c1CBr`, the T/C reads like this: (dose: 6.25 mg/kg/injection, schedule: Q01DX009 (ip), vehicle: saline with Tween-80) 127 % of control; under setting [8], 127 % of control; under setting [9], 127 % of control. Further, the survivor count (dose: 25.0 mg/kg/injection, schedule: Q01DX009 (ip), vehicle: Klucel (hydroxypropylcellulose) (HPC)) is 2 of 6.

The values are drawn from PubChem BioAssay AID328 (DTP/NCI, 2004).
